Our source for the binding values is article PMC9494907.

Protein sequences, listed by entry. Tags and fused reporters are not part of them.
UniProt P63104: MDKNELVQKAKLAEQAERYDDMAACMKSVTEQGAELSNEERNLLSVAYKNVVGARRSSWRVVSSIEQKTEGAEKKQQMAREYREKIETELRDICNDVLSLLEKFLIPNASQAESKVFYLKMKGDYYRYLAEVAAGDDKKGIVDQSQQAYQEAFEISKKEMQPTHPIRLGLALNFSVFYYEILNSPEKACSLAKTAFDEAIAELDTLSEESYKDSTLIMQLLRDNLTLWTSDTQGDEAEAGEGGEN
UniProt P46937: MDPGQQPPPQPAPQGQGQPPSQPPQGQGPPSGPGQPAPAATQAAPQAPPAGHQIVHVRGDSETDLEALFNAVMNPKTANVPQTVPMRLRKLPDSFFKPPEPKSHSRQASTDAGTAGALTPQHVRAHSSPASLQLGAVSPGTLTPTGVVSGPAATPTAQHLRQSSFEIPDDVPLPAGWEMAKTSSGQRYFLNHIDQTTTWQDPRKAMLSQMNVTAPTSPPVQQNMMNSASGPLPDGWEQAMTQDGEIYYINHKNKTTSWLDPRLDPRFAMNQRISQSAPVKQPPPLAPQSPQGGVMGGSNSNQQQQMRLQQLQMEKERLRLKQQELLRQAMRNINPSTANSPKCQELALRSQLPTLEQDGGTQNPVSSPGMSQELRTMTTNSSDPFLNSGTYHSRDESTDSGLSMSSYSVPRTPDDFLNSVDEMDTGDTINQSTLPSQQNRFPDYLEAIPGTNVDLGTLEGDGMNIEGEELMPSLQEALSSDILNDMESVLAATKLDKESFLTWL

The experiment deals with 14-3-3ζ (human (endogenous in LM3 and Hep-3B)) (UniProt P63104). Description: co-IP; IP with 14-3-3ζ antibody or control IgG (IP kit, Thermo Fisher) from circPAK1 stable knockdown LM3 cells (sh-circPAK1 vs sh-NC) and circPAK1 stable overexpression Hep-3B cells; immunoblot with 14-3-3ζ, p-LATS1/2 and YAP antibodies. In general terms: Immunoblotting shows a protein as a band on a membrane.

Results are given in words; binding and its absence hold for the method and conditions named. Binding seen in cells or lysates may run through a third protein. Some binding calls cover weakened binding; strength is not graded here.

In the case of “YAP (Yes-associated protein) (from UniProt P46937 1-504)”, the binding result is listed as “binds”.
